Experimental data as given in PubChem BioAssay AID504444 (National Center for Advancing Translational Sciences (NCATS), 2011).
Screen size: about 360,000 compounds; about 7,500 (2.1%) were called active. This list was built around the results that the source calls inconclusive (neither active nor inactive); the mix of calls is not that of the screen. Calls come from the whole dose curve; as a rule, active = well fitted inhibition curve with a large enough effect; inconclusive = small, poorly fitted or top-dose-only effect, or effect the other way; inactive = flat fitted curve, though single readings scatter. A potency beside an inconclusive call is a rough fit, not a confirmed value.

Test: Nrf2 qHTS screen for inhibitors; note: nearly all actives have a fitted effect of over 60% in size
Details: A549 ARE-Fluc reporter, luciferase luminescence, 18-24 h; activity change, negative = inhibition: at 46 µM (top of the series)
Outline: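 Quantitative HTS in A549 cells stably bearing an antioxidant response element-firefly luciferase construct. Inhibition of Nrf2-driven transcription was scored by luminescence after 18-24 h of compound exposure at 37 °C.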
% is set by controls: 0 for no effect and ±100 for the full control effect; potency is the fitted concentration of half-maximal effect.

Question: With `CCc1nnc(SCC(=O)Nc2ccc(Cl)cc2F)c2cc3occc3n12` as the molecule, how does the Potency read?
Answer: inconclusive: 29.1 µM [falling, single point]

Question: With `CCc1ccc(CNC(=O)c2ccc(CS(=O)c3ccc(Br)cc3)o2)cc1` (stereo not drawn) as the molecule, how does the Potency read?
Answer: inconclusive: 29.1 µM [falling, partial curve, poor fit]

Question: With `COc1cc([N+](=O)[O-])cc(/C=N/NC(=O)c2ccc(NC(=O)c3ccc(C)cc3)cc2)c1O` as the molecule, how does the Potency read?
Answer: active: 4.61 µM

Question: With `CC1CC(C)(C)CC2(C1)NC(=O)N(CC(=O)N(Cc1ccccc1)c1ccccc1)C2=O` (stereo not drawn) as the molecule, how does the Potency read?
Answer: inconclusive: 25.9 µM [falling, single point]

Question: For `CCn1c(C(=O)NCc2ccc(C)cc2)cc2sc(Cl)cc21`, which Potency is on record?
Answer: inconclusive: 18.4 µM [activator, single point]

Question: With `COc1ccc(N2C(=O)[C@@H]3[C@H](C2=O)[C@H](C(C)=O)N2c4ccccc4C=C[C@@H]32)cc1` as the molecule, how does the Potency read?
Answer: inconclusive: 20.6 µM [falling, single point]

Question: For `Cc1ccc2nc(NCc3ccccc3)[nH]c2c1`, which Potency is on record?
Answer: inconclusive: 7.31 µM [activator, partial curve]

Question: For `Cc1ccc(S(=O)(=O)N(C)c2ccc(C(=O)N3CCCCC3)cc2)cc1`, which Potency is on record?
Answer: inconclusive: 20.6 µM [falling, single point]

Question: With `COc1ccc2c(c1)CC[C@@H]1[C@@H]2CC[C@]2(C)[C@@H](C(C)=O)C[C@@H]12` as the molecule, how does the Potency read?
Answer: inconclusive: 20.6 µM [activator, partial curve]

Question: For `COc1ccccc1NC(=O)c1ccc(NC(=O)CN(C)Cc2ccccc2F)cc1`, which Potency is on record?
Answer: inconclusive: 20.6 µM [falling, partial curve, poor fit]

Question: With `CCN(CC(=O)Nc1c(F)cccc1F)C(=O)c1cc([N+](=O)[O-])ccc1N1CCCCC1` as the molecule, how does the Potency read?
Answer: inconclusive: 20.6 µM [falling, partial curve]

Question: With `O=C(c1ccc2c(c1)OCCO2)N1CCN(c2nc(-c3cccs3)nc3ccccc23)CC1` as the molecule, how does the Potency read?
Answer: inconclusive: 23.1 µM [falling, single point]

Question: With `COc1ccc(-c2csc3ncnc(N4CCN(c5ccccc5Cl)CC4)c23)cc1` as the molecule, how does the Potency read?
Answer: inconclusive: 18.4 µM [falling, single point]

Question: With `CC(=O)c1cnc(Nc2nc(C)c3cc(C)c(C)cc3n2)nc1C` as the molecule, how does the Potency read?
Answer: inconclusive: 3.26 µM [falling, partial curve, poor fit]

Question: Which Potency does the source give for `O=C(OCc1ccccn1)c1ccc(COc2ccc3ccccc3c2)o1` here?
Answer: inconclusive: 14.6 µM [activator, partial curve]

Question: Which Potency does the source give for `CCCCC(=O)Nc1sc2c(c1C#N)CC(C)(C)OC2` here?
Answer: inconclusive: 4.11 µM [activator, full curve]

Question: For `O=C(Oc1ccc(N(C(=O)c2ccncc2)S(=O)(=O)c2ccc(F)cc2)cc1)c1ccncc1`, which “activity change, negative = inhibition” value is on record?
Answer: inactive: 1%

Question: For `O=C(NC1CCCCCC1)c1c2c(nc3ccccc13)CCN(Cc1ccccc1)C2`, which Potency is on record?
Answer: inconclusive: 25.9 µM [activator, single point]

Question: With `O=C(c1ccc2c(c1)OCCCO2)c1cccs1` as the molecule, how does the Potency read?
Answer: inconclusive: 4.11 µM [activator, full curve]

Question: Which Potency does the source give for `CC(C)=NNc1nc2c(c(=O)[nH]c(=O)n2C)n1CCCc1ccccc1` here?
Answer: inconclusive: 13 µM [falling, partial curve]

Question: For `C#CCN1C=CC(=O)[C@@H](OC(=O)Nc2ccc(Br)cc2)[C@H]1c1ccccc1Br`, which Potency is on record?
Answer: inconclusive: 29.1 µM [falling, single point]

Question: For `O=C(CCl)Nc1cccc2ncccc12`, which Potency is on record?
Answer: active: 16.4 µM

Question: With `COc1ccc(OC)c(CNc2ccc3c(c2)nc(C)n3C)c1` as the molecule, how does the Potency read?
Answer: inconclusive: 20.6 µM [activator, partial curve, poor fit]

Question: Which “activity change, negative = inhibition” value does the source give for `O/N=C\c1ccccc1Oc1ccc(F)cc1` here?
Answer: inactive: 1.72%

Question: Which Potency does the source give for `COc1ccc(NC(=O)CN2CCN(c3nc(-c4cccc(OC)c4)cs3)CC2)cc1` here?
Answer: inconclusive: 29.1 µM [falling, single point]

Question: For `O=C(NCc1ccco1)c1c(F)cccc1Cl`, which Potency is on record?
Answer: inconclusive: 29.1 µM [falling, single point]

Question: Which Potency does the source give for `CCOCCc1nn2c(=O)cc(COC(=O)COc3ccc(C)c(C)c3)nc2s1` here?
Answer: inconclusive: 14.6 µM [activator, partial curve, poor fit]

Question: Which “activity change, negative = inhibition” value does the source give for `C=CCN1c2ccccc2[C@]23C[C@@H](C(=O)OC)N(C(C)=O)C2=NC(C(=O)OC)=C(C(=O)OC)[C@H]13` here?
Answer: inactive: 5.94%

Question: Which Potency does the source give for `S=C(NCCc1cccc(Cl)c1)NC1CCCCC1` here?
Answer: inconclusive: 20.6 µM [activator, single point]

Question: Which Potency does the source give for `COc1ccccc1Oc1ccc2c(c1)C(=O)N(c1cccc3ncccc13)C2=O` here?
Answer: active: 16.4 µM

Question: Which Potency does the source give for `Cn1ccnc1SCC(=O)N1CCc2ccccc21` here?
Answer: inconclusive: 3.66 µM [activator, full curve]

Question: Which Potency does the source give for `Cc1ccc(C(=O)N/C(=C/c2ccco2)C(=O)Nc2cccc(C)c2)cc1` here?
Answer: inconclusive: 18.4 µM [falling, partial curve, poor fit]

Question: For `COc1ccc(N2CCN(C(=O)CN3c4cccc5cccc(c45)S3(=O)=O)CC2)cc1`, which Potency is on record?
Answer: inconclusive: 29.1 µM [falling, single point]

Question: Which Potency does the source give for `CC(=O)OC[C@H]1O[C@@H](n2ncc(=O)[nH]c2=O)[C@H](OC(C)=O)[C@@H]1OC(C)=O` here?
Answer: inconclusive: 0.259 µM [activator, full curve, poor fit]

Question: With `COc1cc2c(c(OC)c1OC)-c1ccc(OC)c(=O)cc1C(NC(=O)c1ccccc1)CC2` (stereo not drawn) as the molecule, how does the Potency read?
Answer: inconclusive: 0.184 µM [activator, full curve]

Question: With `Cc1ccc(C(=O)N(Nc2nc3ccccc3s2)C(=O)c2ccc(C)cc2)cc1` as the molecule, how does the Potency read?
Answer: inconclusive: 11.6 µM [falling, partial curve, poor fit]

Question: For `CCn1c(SCC(=O)Nc2ccc3c(c2)OCCO3)nnc1-c1cccs1`, which Potency is on record?
Answer: inconclusive: 2.91 µM [falling, full curve]

Question: Which “activity change, negative = inhibition” value does the source give for `COC(=O)c1ccc(COC(=O)[C@@H]2CC(O)CN2S(=O)(=O)c2ccccc2[N+](=O)[O-])cc1` (stereo partly drawn) here?
Answer: inactive: -13.4%

Question: Which Potency does the source give for `CCOc1ccc(CCNC(=O)C(CC(C)C)N2Cc3ccccc3C2=O)cc1OCC` (stereo not drawn) here?
Answer: inconclusive: 20.6 µM [falling, single point]

Question: For `CCOc1ccccc1NC(=O)Nc1ccc2nc(N3CCN(C)CC3)cc(C)c2c1`, which Potency is on record?
Answer: inconclusive: 11.6 µM [activator, partial curve]

Question: With `C#Cc1cccc(NC(=O)c2ccc(Cl)cc2Cl)c1` as the molecule, how does the Potency read?
Answer: inconclusive: 4.61 µM [activator, partial curve, poor fit]

Question: With `CC(CCc1ccccc1)NC(=O)CNC(=S)N(Cc1cccs1)C1CCCC1` (stereo not drawn) as the molecule, how does the Potency read?
Answer: active: 14.6 µM

Question: Which “activity change, negative = inhibition” value does the source give for `O=C(Nc1cccc2ccccc12)N1CCOCC1` here?
Answer: inactive: -1.23%

Question: For `O=C(C/C=N/OCc1ccc(Cl)cc1)c1cnc(-c2ccccc2)s1`, which Potency is on record?
Answer: inconclusive: 0.0046 µM [activator, full curve, poor fit]

Question: For `CCSc1nc(N)c(C#N)c(-c2ccco2)c1C#N`, which Potency is on record?
Answer: inconclusive: 20.6 µM [falling, single point]

Question: For `Cc1cccc(OCC(=O)N(Cc2cccs2)C2CCS(=O)(=O)C2)c1C` (stereo not drawn), which Potency is on record?
Answer: inconclusive: 29.1 µM [falling, single point]

Question: With `O=C(Nc1ccc2ccccc2n1)C1CCCCC1` as the molecule, how does the Potency read?
Answer: inconclusive: 29.1 µM [activator, partial curve]

Question: For `COc1cccc(NC(=O)c2ccccc2Br)c1`, which Potency is on record?
Answer: inconclusive: 0.58 µM [activator, full curve, poor fit]

Question: Which Potency does the source give for `C=CCn1c(SCC(C)=O)nc2scc(-c3ccc(C)o3)c2c1=O` here?
Answer: inconclusive: 14.6 µM [activator, partial curve]

Question: For `Cc1cccc(NC(=O)COc2ccc(/C=C\c3[nH]c(=O)[nH]c(=O)c3[N+](=O)[O-])cc2)c1`, which “activity change, negative = inhibition” value is on record?
Answer: inactive: 4.05%

Question: Which Potency does the source give for `CN(CC(=O)Nc1ccccc1Br)C(=O)c1sccc1-c1ccccc1` here?
Answer: inconclusive: 29.1 µM [falling, single point]

Question: Which Potency does the source give for `COc1ccc(COCCN2CCN(S(=O)(=O)c3ccc(C)cc3)CCC2=O)cc1` here?
Answer: inconclusive: 7.31 µM [falling, partial curve, poor fit]

Question: With `COc1cccc(-c2noc(C(C)n3nc(C)c([N+](=O)[O-])c3C)n2)c1` (stereo not drawn) as the molecule, how does the Potency read?
Answer: inconclusive: 4.11 µM [activator, single point]

Question: With `CCOc1ccc(CCNC(=O)CSc2nc3ccccc3nc2Cc2ccc(C)cc2)cc1OCC` as the molecule, how does the activity change, negative = inhibition read?
Answer: inactive: -2.79% [at 9.27 µM]

Question: With `CNC(=O)COC(=O)/C=C/c1cn(-c2ccccc2)nc1-c1ccc2c(c1)OCCO2` as the molecule, how does the “activity change, negative = inhibition” value read?
Answer: inactive: -4.25%

Question: For `COc1ccc(-c2cc(C)no2)cc1S(=O)(=O)N1CCN(c2ccccn2)CC1`, which Potency is on record?
Answer: active: 18.4 µM

Question: With `COC(=O)c1c(C)[nH]c(C)c1-c1ccc([N+](=O)[O-])cc1` as the molecule, how does the Potency read?
Answer: inconclusive: 20.6 µM [falling, partial curve, poor fit]

Question: For `CC(C)NC(=O)N(C)C[C@@H]1Oc2c(NS(=O)(=O)c3ccccc3)cccc2C(=O)N([C@@H](C)CO)C[C@@H]1C`, which “activity change, negative = inhibition” value is on record?
Answer: inactive: 8.84%

Question: For `COc1cc(/C=C(/NC(=O)c2ccccc2)C(=O)Nc2ccccc2)c([N+](=O)[O-])cc1OC`, which Potency is on record?
Answer: inconclusive: 5.17 µM [activator, full curve, poor fit]

Question: Which Potency does the source give for `COc1ccc(CCN(Cc2ccccn2)C(=S)Nc2ccccc2Cl)cc1OC` here?
Answer: inconclusive: 18.4 µM [falling, partial curve]

Question: Which Potency does the source give for `CCCCCCCC(=O)N/N=C(\C)c1cccnc1` here?
Answer: inconclusive: 20.6 µM [falling, single point]

Question: For `CC(=O)Nc1ccccc1NS(=O)(=O)c1ccccc1NO`, which Potency is on record?
Answer: inconclusive: 11.6 µM [falling, partial curve, poor fit]

Question: Which Potency does the source give for `COc1ccc(-c2cc(C)no2)cc1S(=O)(=O)N1CC(=O)Nc2ccccc21` here?
Answer: inconclusive: 8.2 µM [falling, partial curve, poor fit]
